Results reported in US20040009177A1 (SERVICES, published 2004).
Results are given in words; binding and its absence hold for the method and conditions named. Some results given as binding are weak or reduced against the parent protein; the word gives no strength.

Sequences of proteins named here, by UniProt entry; tags and fusion partners are left off. Residues count along the entry.
UniProt P49238: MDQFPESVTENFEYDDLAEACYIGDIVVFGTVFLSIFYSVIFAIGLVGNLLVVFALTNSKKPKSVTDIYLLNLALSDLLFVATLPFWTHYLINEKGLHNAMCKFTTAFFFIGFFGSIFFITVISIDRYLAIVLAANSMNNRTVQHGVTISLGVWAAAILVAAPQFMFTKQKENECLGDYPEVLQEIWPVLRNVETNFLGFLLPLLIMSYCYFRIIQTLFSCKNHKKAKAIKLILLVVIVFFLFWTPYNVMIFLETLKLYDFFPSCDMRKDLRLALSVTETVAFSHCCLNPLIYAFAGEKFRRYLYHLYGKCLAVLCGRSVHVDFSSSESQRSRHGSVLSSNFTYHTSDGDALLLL
UniProt P78423, residues 25-100: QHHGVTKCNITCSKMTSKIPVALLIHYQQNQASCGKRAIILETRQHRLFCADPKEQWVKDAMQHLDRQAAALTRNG
UniProt P03423: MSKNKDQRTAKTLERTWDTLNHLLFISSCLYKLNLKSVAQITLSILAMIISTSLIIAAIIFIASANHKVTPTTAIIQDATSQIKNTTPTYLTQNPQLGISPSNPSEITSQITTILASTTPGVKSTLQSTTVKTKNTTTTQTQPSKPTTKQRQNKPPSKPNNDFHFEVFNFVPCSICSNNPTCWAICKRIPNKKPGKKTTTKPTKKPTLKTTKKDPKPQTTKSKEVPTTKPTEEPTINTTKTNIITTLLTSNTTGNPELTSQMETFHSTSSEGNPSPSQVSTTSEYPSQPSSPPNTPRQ

What was measured:
[1] = molecular target: CX3CR1 on CX3CR1-transfected human embryonic kidney cells (293-CX3CR1 cells) (UniProt P49238); assay: flow cytometry on 293-CX3CR1 cells
[2] = molecular target: CX3CR1 on CX3CR1-transfected human embryonic kidney cells (293-CX3CR1 cells) (UniProt P49238); assay: flow cytometry on 293-CX3CR1 cells, 4°C
[3] = molecular target: CX3CR1 on CX3CR1-transfected human embryonic kidney cells (293-CX3CR1 cells) (UniProt P49238); assay: binding and binding inhibition assays with 293-CX3CR1 cells
[4] = molecular target: CX3CR1 on CX3CR1-transfected human embryonic kidney cells (293-CX3CR1 cells) (UniProt P49238); assay: flow cytometry with G-depleted void volume of a 130-2G affinity column as control

| Substance | binding [1] | binding [2] | binding [3] | binding [4] |
| --- | --- | --- | --- | --- |
| human fractalkine (R&D Diagnostics) (from UniProt P78423 25-100) (ligand) | binds | binds | – | – |
| RSV G glycoprotein, purified from RSV/A2-infected Vero cells (from UniProt P03423 1-298) (ligand) | – | – | binds | binds |
